Structures can show the parent of a compound that is named as a salt. Where two headings read alike, the source gives them in different places.
Columns and labels:
PC-3 = assay: Cell viability assay (Cell-Titer-Blue); assay type: cell-based; conditions: Homo sapiens, 72h, read-out: Calculated IC50
Hs852T = assay: Cell viability assay (Cell-Titer-Blue); assay type: cell-based; conditions: Homo sapiens; 72h; read-out: Calculated IC50
786-O = assay: Cell viability assay (Cell-Titer-Blue); assay type: cell-based; conditions: Homo sapiens, 786-0; 72h; read-out: Calculated IC50
U251 = assay: Cell viability assay (Cell-Titer-Blue); assay type: cell-based; conditions: Homo sapiens, U-251; 72h; read-out: Calculated IC50
MCF10A cells = assay: cells; conditions: Homo sapiens, MCF-10A, 72 h, read-out: Calculated IC50
LNCaP = assay: Cell viability assay (Cell-Titer-Blue); assay type: cell-based; conditions: Homo sapiens, 72h, read-out: Calculated IC50
A375 cells = assay: Cell viability assay (Cell-Titer-Blue); assay type: cell-based, human
22Rv1 = assay: Cell viability assay (Cell-Titer-Blue); assay type: cell-based; conditions: Homo sapiens, 72h, read-out: Calculated IC50
HepG2 = assay: Cell viability assay (Cell-Titer-Blue); assay type: cell-based; conditions: Homo sapiens, 72h, read-out: Calculated IC50
RT4 = assay: Cell viability assay (Cell-Titer-Blue); assay type: cell-based; conditions: Homo sapiens, RT-4; 72h; read-out: Calculated IC50
TCCSUP = assay: Cell viability assay (Cell-Titer-Blue); assay type: cell-based; conditions: Homo sapiens, TCC-SUP; 72h; read-out: Calculated IC50
A101D = assay: Cell viability assay (Cell-Titer-Blue); assay type: cell-based; conditions: Homo sapiens, 72h, read-out: Calculated IC50
SKMEL28 = assay: Cell viability assay (Cell-Titer-Blue); assay type: cell-based; conditions: Homo sapiens, SK-MEL-28; 72h; read-out: Calculated IC50
PANC1 = assay: Cell viability assay (Cell-Titer-Blue); assay type: cell-based; conditions: Homo sapiens, PANC-1; 72h; read-out: Calculated IC50
ZR-75-1 = assay: Cell viability assay (Cell-Titer-Blue); assay type: cell-based; conditions: Homo sapiens, 72h, read-out: Calculated IC50
BxPC3 = assay: Cell viability assay (Cell-Titer-Blue); assay type: cell-based; conditions: Homo sapiens, BXPC-3; 72h; read-out: Calculated IC50
MDA-MB-231 = assay: Cell viability assay (Cell-Titer-Blue); assay type: cell-based; conditions: Homo sapiens, 72h, read-out: Calculated IC50
U87 = assay: Cell viability assay (Cell-Titer-Blue); assay type: cell-based; conditions: Homo sapiens, U-87 MG; 72h; read-out: Calculated IC50
[1] = tested on: R545 tet-inducible RasV12 melanoma cells; assay: cells; conditions: Mus musculus, 72 h
DU145 = assay: Cell viability assay (Cell-Titer-Blue); assay type: cell-based; conditions: Homo sapiens, DU-145; 72h; read-out: Calculated IC50
A498 = assay: Cell viability assay (Cell-Titer-Blue); assay type: cell-based; conditions: Homo sapiens, 72h, read-out: Calculated IC50
HT29 = assay: Cell viability assay (Cell-Titer-Blue); assay type: cell-based; conditions: Homo sapiens, HT-29; 72h; read-out: Calculated IC50
HCT116 = assay: Cell viability assay (Cell-Titer-Blue); assay type: cell-based; conditions: Homo sapiens, HCT-116; 72h; read-out: Calculated IC50
A2058 = assay: Cell viability assay (Cell-Titer-Blue); assay type: cell-based; conditions: Homo sapiens, 72h, read-out: Calculated IC50
HCC1806 = assay: Cell viability assay (Cell-Titer-Blue); assay type: cell-based; conditions: Homo sapiens, 72h, read-out: Calculated IC50
RPMI7951 = assay: Cell viability assay (Cell-Titer-Blue); assay type: cell-based; conditions: Homo sapiens, RPMI-7951; 72h; read-out: Calculated IC50

Compound: OCCN1CCN(CCCN2c3ccccc3Sc3ccc(C(F)(F)F)cc32)CC1 [Fluphenazine, fluphenazine hydrochloride]
- IC50 (PC-3): 22.8 µM
- IC50 (Hs852T): 11.7 µM
- IC50 (786-O): 12 µM
- IC50 (U251): 16.8 µM
- IC50 (MCF10A cells): 11.3 µM
- IC50 (LNCaP): 13.7 µM
- IC50 (A375 cells; 72h, read-out: Calculated IC50): 9.4 µM
- IC50 (A375 cells; Homo sapiens, A-375, 24 h, 24h treatment, read-out: IC50, cell viability): 20.1 µM
- IC50 (A375 cells; Homo sapiens, A-375, 72 h, 72h, read-out: Calculated IC50): 9.35 µM
- IC50 (22Rv1): 11.3 µM
- IC50 (HepG2): 9.8 µM
- IC50 (RT4): 22.1 µM
- IC50 (TCCSUP): 11.5 µM
- IC50 (A101D): 7.7 µM
- IC50 (SKMEL28): 8.7 µM
- IC50 (PANC1): 23.1 µM
- IC50 (ZR-75-1): 13.4 µM
- IC50 (BxPC3): 10.4 µM
- IC50 (MDA-MB-231): 16.9 µM
- IC50 (U87): 23.3 µM
- IC50 ([1]; read-out: Calculated IC50, 72h, Dox (–)): 13.2 µM
- IC50 ([1]; read-out: Calculated IC50, 72h, Dox(+)): 12.7 µM
- IC50 (DU145): 21 µM
- IC50 (A498): 7.5 µM
- IC50 (HT29): 11.1 µM
- IC50 (HCT116): 10.6 µM
- IC50 (A2058): 7.9 µM
- IC50 (HCC1806): 11.4 µM
- IC50 (RPMI7951): 10.7 µM

Source: paper PMC10613967, “The anti-cancer efficacy of a novel phenothiazine derivative is independent of dopamine and serotonin receptor inhibition” (Frontiers in Oncology, 2023)
